# In patent publication US20210113540A1, “TREATMENT AGENT AND PHARMACEUTICAL COMPOSITION FOR GLIOMA” (NATIONAL UNIVERSITY CORPORATION HOKKAIDO UNIVERSITY, priority 2018, published 2021):
# Some results were stated once for a whole list of compounds, not compound by compound.
# Tested on: Glioma-initiating cell E6R
# Assay: Cell growth test (MTT) on GICR strain E6R
# Format: cell-based, human
# Settings: Tables 4 to 6
# Protocol: GICR strain: Cell growth test was performed using E6R (Stem Cells. 2016 August; 34(8):2016-25.).
# Cell culture solutions were obtained by mixing a medium prepared by adding various compounds, bFGF (Peprotech, 100-18B) and EGF (Peprotech, 100-15) to DMEM/Ham's F-12 medium (SIGMA, D8062) and a medium prepared by adding FCS (Hyclone, SH30910.03) to DMEM medium (Nacalai tesque, 08458-45) to a concentration of 10% for use.
# Each compound adjusted to a predetermined concentration was dispensed into a 96-well plate (Falcon, 353072) at 80 μL/well, and E6 cells and E6R cells were seeded on the 96-well plate at 1000 cells/80 μL/well. After 3 days, 10 μL of an MTT reagent (DOJINDO, 341-01823) was added, the cells were incubated at 37° C. for 3 hours, the culture solution was removed, and 100 μL of DMSO was added. The absorbance at 570 nm was measured using Bio-Rad iMark (Bio-Rad, 168-1130JA). The growth inhibition rate at each test compound concentration was calculated by the following formula using the absorbance as an index of the viable cell count.
# The growth inhibition rate at each compound concentration was determined, and the 50% growth inhibition concentration GI50 (μmol/L)] was calculated using XLfit. Growth inhibition rate (%)=(Amount of luminescence from wells supplemented with test compound)/(Amount of luminescence from wells supplemented with DMSO)×100
# GIC and GICR strain: Cell growth test was performed using E6, E6R, E16, and E16R (Stem Cells. 2016 August; 34(8): 2016-25.).
row,SMILES,cell growth inhibitory effect
1,"O=C(O)c1cc(C2CC2)ccc1Nc1ccc2c(cnn2Cc2ccccc2)c1 [Compound 1, 2-((1-benzyl-1h-indazole-5-yl)amino)-5-cyclopropylbenzoate]",excellent cell growth inhibitory effect
2,"O=C(O)c1cc(C2CC2)cnc1Nc1ccc2c(ccn2CC2CCCCC2)c1 [Compound 2, 2-((1-(cyclohexylmethyl)-1H-indole-5-yl)amino)-5-cyclopropylnicotinic acid]",excellent cell growth inhibitory effect
3,"O=C(O)c1cc(C2CC2)cnc1Nc1cccc2c1ccn2-c1ccccc1 [Compound 3, 5-cyclopropyl-2-((1-phenyl-1H-indole-4-yl)amino)nicotinic acid]",excellent cell growth inhibitory effect
4,"Cn1ccc2cc(Nc3ncc(C4CC4)cc3C(=O)O)cc(-c3ccccc3F)c21 [Compound 4, 5-cyclopropyl-2-((7-(2-fluorophenyl)-1-methyl-1H-indole-5-yl)amino)nicotinic acid]",excellent cell growth inhibitory effect
5,Cn1ccc2cc(Nc3ncc(C4CC4)cc3C(=O)O)cc(-c3ccc(C(F)(F)F)cc3)c21 [Compound 5],excellent cell growth inhibitory effect
6,"Cn1ccc2cc(Nc3ncc(C4CC4)cc3C(=O)O)cc(-c3cccc(Cl)c3)c21 [Compound 6, 2-((7-(3-chlorophenyl)-1-methyl-1H-indole-5-yl)amino)-5-cyclopropylnicotinic acid]",excellent cell growth inhibitory effect
7,"Cn1ccc2cc(Nc3ncc(C4CC4)cc3C(=O)O)cc(-c3ccc(OC(F)(F)F)cc3)c21 [Compound 7, 5-cyclopropyl-2-((1-methyl-7-(4-(trifluoromethoxy)phenyl)-1H-indole-5-yl)amino)nicotinic acid]",excellent cell growth inhibitory effect
8,"O=C(O)c1cc(C2CC2)cnc1Nc1ccc2c(ccn2-c2ccccc2)c1 [Compound 8, 5-cyclopropyl-2-((1-phenyl-1H-indole-5-yl)amino)nicotinic acid]",excellent cell growth inhibitory effect
9,"O=C(O)c1cc(C2CC2)cnc1Nc1cccc2c(-c3ccccc3)cccc12 [Compound 9, 5-cyclopropyl-2-((5-phenylnaphthalene-1-yl)amino)nicotinic acid]",excellent cell growth inhibitory effect
10,"O=C(O)c1cc(C2CC2)cnc1Nc1ccc2c(-c3ccccc3)cccc2c1 [Compound 10, 5-cyclopropyl-2-((5-phenylnaphthalene-2-yl)amino)nicotinic acid]",excellent cell growth inhibitory effect
11,"Cn1ccc2cc(Nc3ncc(C4CC4)cc3C(=O)O)cc(-c3ccccc3)c21 [Compound 11, 5-cyclopropyl-2-((1-methyl-7-phenyl-1H-indole-5-yl)amino)nicotinic acid]",excellent cell growth inhibitory effect
12,"O=C(O)c1cc(C2CC2)cnc1Nc1ccc2c(ccn2-c2cccc(F)c2)c1 [Compound 12, 5-cyclopropyl-2-((1-(3-fluorophenyl)-1H-indole-5-yl)amino)nicotinic acid]",excellent cell growth inhibitory effect
13,"O=C(O)c1cc(C2CC2)cnc1Nc1cc2ccn(Cc3ccccc3)c2cc1F [Compound 13, 2-((1-benzyl-6-fluoro-1H-indole-5-yl)amino)-5-cyclopropylnicotinic acid]",excellent cell growth inhibitory effect
14,"O=C(O)c1cc(C2CC2)cnc1Nc1c(F)cc2c(ccn2Cc2ccccc2)c1F [Compound 14, 2-((1-benzyl-4,6-difluoro-1H-indole-5-yl)amino)-5-cyclopropylnicotinic acid]",excellent cell growth inhibitory effect
15,"Cn1ccc2cc(Nc3ncc(C4CC4)cc3C(=O)O)cc(C3=CCOCC3)c21 [Compound 15, 5-cyclopropyl-2-((7-(3,6-dihydro-2H-pyran-4-yl)-1-methyl-1H-indole-5-yl)amino)nicotinic acid]",excellent cell growth inhibitory effect
16,"O=C(O)c1cc(C2CC2)cnc1Nc1ccc2c(-c3ccccc3)nccc2c1 [Compound 16, 5-cyclopropyl-2-((1-phenylisoquinoline-6-yl)amino)nicotinic acid]",excellent cell growth inhibitory effect
17,"Cn1ccc2cc(Nc3ncc(C4CC4)cc3C(=O)O)cc(-c3ccc(C#N)cc3)c21 [Compound 17, 2-((7-(4-cyanophenyl)-1-methyl-1H-indole-5-yl)amino)-5-cyclopropylnicotinic acid]",excellent cell growth inhibitory effect
18,"Cn1ccc2cc(Nc3ncc(C4CC4)cc3C(=O)O)cc(-c3ccc(Cl)cc3)c21 [Compound 18, 2-((7-(4-chlorophenyl)-1-methyl-1H-indole-5-yl)amino)-5-cyclopropylnicotinic acid]",excellent cell growth inhibitory effect
19,"O=C(O)c1cc(C2CC2)ccc1Nc1cccc2c1ccc(=O)n2-c1ccccc1 [Compound 19, 5-cyclopropyl-2-((2-oxo-1-phenyl-1,2-dihydroquinoline-5-yl)amino)benzoic acid]",excellent cell growth inhibitory effect
20,Cn1ccc2cc(Nc3ncc(C4CC4)cc3C(=O)O)cc(C3=CCCCC3)c21 [Compound 20],excellent cell growth inhibitory effect
